Drawing on PubChem BioAssay AID280 (DTP/NCI, 2004), this text covers T/C and survivor count for 22 compounds.

The list shows only some results of the screen, not a fair sample: it is rich in T/C values a quarter to a half above the control, in often repeated tests (any T/C) and in doses without a T/C. Other doses and runs of a compound stand elsewhere. T/C is the treated group as % of the vehicle group. Some doses have a count of surviving animals in place of a T/C: the source files T/C as zero there, which appears to mark a toxic dose or a test without result, not a measured value. Some survivor counts are full or nearly so, which does not show that the dose was tolerated: the source hardly ever lists a survival T/C far under the control, and the zero likely stands for such cases as well. Survivors were counted at the toxicity check, usually on the fifth day, unless a day is given; later deaths do not show. Schedules are NCI's codes, read here as Q, the interval in days (D) or hours (H), X, the number of doses. Some entries hold several experiments; the values are given in rising order. Where survival is the endpoint, this PubChem deposit counts one and a half times the control or more as active, and values a quarter to a half above the control carry no call in these data; other NCI protocols may use other cut-offs. Counts like (3×) count equal records among those shown.

This test deals with nude mice, LOX melanoma ip, survival T/C. Nature of the test: NCI In Vivo Anticancer Drug Screen. Data for tumor model Human Amelanotic Melanoma (LOX) (intraperitoneal) in NU/NU BALB/C (nude) mice. As to conditions: T/C endpoint: median survival time, schedule: Q04DX003 (ip), higher T/C = longer survival. The protocol:
The antitumor activity of compounds was measured in mice bearing transplantable tumors. Survival or tumor size were measured and the results are expressed as the measurement made in the treated group (T) divided by the measurement made in the vehicle treated control group (C). The tumor model used in this assay is Human Amelanotic Melanoma (LOX) (intraperitoneal) in NU/NU BALB/C (nude) mice

The mark [1] stands for this setting: dose: 40.0 mg/kg/injection, vehicle: water.
Where [2] appears, read: dose: 12.5 mg/kg/injection, vehicle: saline with Tween-80.
Setting [3] is: dose: 50.0 mg/kg/injection, vehicle: saline with Tween-80.
Setting [4] is: dose: 150.0 mg/kg/injection, vehicle: saline with Tween-80.
[5] abbreviates: dose: 600.0 mg/kg/injection, vehicle: saline with Tween-80.

With `O=NNc1ccc(Cl)cn1`, the T/C reads like this: (dose: 12.5 mg/kg/injection, vehicle: water) 133 % of control; (dose: 25.0 mg/kg/injection, vehicle: water) 144 % of control; under setting [1], 125 % of control; (dose: 50.0 mg/kg/injection, vehicle: water) 145 % of control.

Turning to `CN(C)N=Nc1ccc(C(N)=O)cc1`, the T/C (dose: 90.0 mg/kg/injection, vehicle: saline with Tween-80) is 147 % of control.

For `COC(=O)C1C2CCCN2OC1(C)CO` (configuration not stated), where the note is “dose: 125.0 mg/kg/injection, vehicle: saline with Tween-80”, the survivor count was 6 of 6 on day 10. Besides, the T/C (dose: 480.0 mg/kg/injection, vehicle: saline) was 128 % of control.

For the compound `N[C@@H](Cc1c[nH]c2ccccc12)C(=O)Nc1nncs1`, the survivor count (dose: 1200.0 mg/kg/injection, vehicle: suspension in saline) was 0 of 6 on day 10.

As for `NC(=S=O)C(N)=S=O`, the survivor count (dose: 1000.0 mg/kg/injection, vehicle: saline with Tween-80) is reported as 0 of 6 on day 10.

As for `C/C(=N\NC(=O)c1ccccc1O)c1cccc(/C(C)=N/NC(=O)c2ccccc2O)n1`, the T/C is 143 % of control (dose: 12.5 mg/kg/injection, vehicle: saline) and 127 % of control (dose: 25.0 mg/kg/injection, vehicle: saline). In addition, the survivor count (dose: 200.0 mg/kg/injection, vehicle: saline) is on record as 6 of 6 on day 10.

Consider `COc1ccc(C(C)c2cc3c(cc2OC)OCO3)cc1` (configuration not stated), for which the T/C under setting [2] was 145 % of control and the T/C under setting [3] is 132 % of control.

Regarding `Cc1cc(O)c2c(c1O)C(=O)C13C(=C2O)C(=O)C2C(O)C1C1C(O)C3C(=O)C3=C(O)c4c(O)cc(C)c(O)c4C(=O)C321` (configuration not stated), where the note is “dose: 3.13 mg/kg/injection, vehicle: saline with Tween-80”, the T/C is 135 % of control. Also, the survivor count under setting [2] is 3 of 6 on day 10; the survivor count (dose: 25.0 mg/kg/injection, vehicle: saline with Tween-80) was 0 of 6 on day 10; the survivor count under setting [3] is listed as 0 of 6 on day 10.

With `CCC1(O)C(=O)OCc2c1cc1n(c2=O)Cc2cc3cc(N)ccc3nc2-1` (configuration not stated), the survivor count (dose: 30.0 mg/kg/injection, vehicle: suspension in saline) is given as 0 of 6 on day 10 and the survivor count (dose: 60.0 mg/kg/injection, vehicle: suspension in saline) is reported as 0 of 6 on day 10.

In the case of `c1ccc(OCC2CO2)c(OCC2CO2)c1` (configuration not stated), the T/C under setting [4] was 141 % of control. Also, under setting [5], the survivor count is listed as 1 of 6 on day 10.

As to `Cc1ccc(NN=O)nc1`, the T/C reads like this: (dose: 20.0 mg/kg/injection, vehicle: water) 135 % of control; under setting [1], 139 % of control.

In the case of `O=C1C=CC2OC(c3ccccc3)C(O)C2O1` (configuration not stated), the survivor count (dose: 100.0 mg/kg/injection, vehicle: DMSO) was 0 of 6 on day 10.

With `ClC1(Cl)Cc2ccccc21`, the T/C (dose: 200.0 mg/kg/injection, vehicle: saline with Tween-80) is 132 % of control. Moreover, the survivor count (dose: 800.0 mg/kg/injection, vehicle: saline with Tween-80) is listed as 0 of 6 on day 10.

Consider `CCCCNP1(NCCCC)=NP(NCCCC)(NCCCC)=NP(NCCCC)(NCCCC)=NP(NCCCC)(NCCCC)=N1`, for which the T/C under setting [4] was 132 and 142 % of control. The survivor count is, setting by setting: under setting [4], 0 of 6 on day 10; (dose: 250.0 mg/kg/injection, vehicle: saline with Tween-80) 1 of 6 on day 10 and 2 of 6 on day 10; (dose: 300.0 mg/kg/injection, vehicle: saline with Tween-80) 0 of 6 on day 10; (dose: 417.0 mg/kg/injection, vehicle: saline with Tween-80) 2 of 6 on day 10; under setting [5], 0 of 6 on day 10; (dose: 1200.0 mg/kg/injection, vehicle: saline with Tween-80) 0 of 6 on day 10.

With `C=CCOc1cc2c(cc1C(C)c1ccc(OC)cc1)OCO2` (configuration not stated), under “dose: 600.0 mg/kg/injection, vehicle: Klucel (hydroxypropylcellulose) (HPC)”, the T/C was 142 % of control.

As to `CCOC(=O)/C=C/C(=O)N1CCN(C(=O)/C=C/C(=O)OCC)C(C)C1` (configuration not stated), under “dose: 1200.0 mg/kg/injection, vehicle: Klucel (hydroxypropylcellulose) (HPC)”, the survivor count is on record as 0 of 6 on day 10.

In the case of `O=S(=O)(c1cccc(N=C=S)c1)c1cccc(N=C=S)c1`, the survivor count (dose: 240.0 mg/kg/injection, vehicle: Klucel (hydroxypropylcellulose) (HPC)) is recorded as 0 of 6 on day 10.

Consider `COc1ccc(C[C@@H]2NC[C@@H](O)[C@@H]2OC(C)=O)cc1`, for which, under setting [5], the survivor count is listed as 1 of 6 on day 10.

In the case of `CNC(=O)/C=C/C1=CN2C(=O)c3ccc(C)c(O)c3NC(OC)C2C1` (configuration not stated), the T/C is 132 % of control (dose: 50.0 micrograms/kg/injection, vehicle: saline) and 132 % of control (dose: 100.0 micrograms/kg/injection, vehicle: saline). Also, the survivor count runs as follows: (dose: 400.0 micrograms/kg/injection, vehicle: saline) 3 of 6 on day 10; (dose: 800.0 micrograms/kg/injection, vehicle: saline) 3 of 6 on day 10.

As to `O=C(NC(Cc1ccc(I)cc1)C(=O)O)c1ccc(Br)cc1` (configuration not stated), under “dose: 300.0 mg/kg/injection, vehicle: other”, the survivor count is on record as 1 of 6 on day 10.

As for `NC(Cc1ccccc1)C(=O)OCN1C(=O)C2C3C=CC(C2C1=O)C1C2C(=O)N(COC(=O)C(N)Cc4ccccc4)C(=O)C2C31` (configuration not stated), for the setting “dose: 400.0 mg/kg/injection, vehicle: water”, the survivor count was 0 of 6 on day 10.

Turning to `CCOC(=O)N(C)N=NC`, the T/C was 131 % of control (dose: 7.5 mg/kg/injection, vehicle: saline); 132 % of control (2×) (dose: 30.0 mg/kg/injection, vehicle: saline); 143 and 147 % of control (dose: 60.0 mg/kg/injection, vehicle: saline).
